Measured values as given in article doi:10.1101/2020.04.22.055343.

Chains of the proteins cited; added tags and fusions are not shown.
UniProt P35637: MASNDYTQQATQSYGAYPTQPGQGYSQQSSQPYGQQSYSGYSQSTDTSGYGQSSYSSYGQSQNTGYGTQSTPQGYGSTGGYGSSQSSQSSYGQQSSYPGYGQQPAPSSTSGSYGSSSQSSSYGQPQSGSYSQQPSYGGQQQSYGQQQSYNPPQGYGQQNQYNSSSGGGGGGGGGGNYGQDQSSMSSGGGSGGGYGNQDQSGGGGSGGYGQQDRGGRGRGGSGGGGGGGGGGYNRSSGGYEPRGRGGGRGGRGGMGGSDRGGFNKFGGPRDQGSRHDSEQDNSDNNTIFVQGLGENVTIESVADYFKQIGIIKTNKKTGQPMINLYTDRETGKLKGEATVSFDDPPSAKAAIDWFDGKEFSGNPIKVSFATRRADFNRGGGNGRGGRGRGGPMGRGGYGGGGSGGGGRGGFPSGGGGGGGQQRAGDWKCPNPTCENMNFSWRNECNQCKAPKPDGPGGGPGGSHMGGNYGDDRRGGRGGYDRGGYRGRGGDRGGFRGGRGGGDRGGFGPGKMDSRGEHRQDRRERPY

Target: Fused in sarcoma (FUS) (human (endogenous in U-2 OS)) (UniProt P35637)
Assay: affinity purification with mass spectrometry

B1: UHRF1 (protein, UniProt Q96T88 1-793)
chain: MWIQVRTMDGRQTHTVDSLSRLTKVEELRRKIQELFHVEPGLQRLFYRGKQMEDGHTLFDYEVRLNDTIQLLVRQSLVLPHSTKERDSELSDTDSGCCLGQSESDKSSTHGEAAAETDSRPADEDMWDETELGLYKVNEYVDARDTNMGAWFEAQVVRVTRKAPSRDEPCSSTSRPALEEDVIYHVKYDDYPENGVVQMNSRDVRARARTIIKWQDLEVGQVVMLNYNPDNPKERGFWYDAEISRKRETRTARELYANVVLGDDSLNDCRIIFVDEVFKIERPGEGSPMVDNPMRRKSGPSCKHCKDDVNRLCRVCACHLCGGRQDPDKQLMCDECDMAFHIYCLDPPLSSVPSEDEWYCPECRNDASEVVLAGERLRESKKKAKMASATSSSQRDWGKGMACVGRTKECTIVPSNHYGPIPGIPVGTMWRFRVQVSESGVHRPHVAGIHGRSNDGAYSLVLAGGYEDDVDHGNFFTYTGSGGRDLSGNKRTAEQSCDQKLTNTNRALALNCFAPINDQEGAEAKDWRSGKPVRVVRNVKGGKNSKYAPAEGNRYDGIYKVVKYWPEKGKSGFLVWRYLLRRDDDEPGPWTKEGKDRIKKLGLTMQYPEGYLEALANREREKENSKREEEEQQEGGFASPRTGKGKWKRKSAGGGPSRAGSPRRTSKKTKVEPYSLTAQQSSLIREDKSNAKLWNEVLASLKDRPASGSPFQLFLSKVEETFQCICCQELVFRPITTVCQHNVCKDCLDRSFRAQVFSCPACRYDLGRSYAMQVNQPLQTVLNQLFPGYGNGR
In the case of B1, the binding is reported as “binds”.

No constants are given. Whether binding was seen depends on the method and setting. Binding seen in cells or lysates may run through a third protein. These calls come from enrichment with a bait or labelling near it, and not all partners need be listed.
